Screening data

Source: PubChem BioAssay AID504749 (NCATS, 2011).

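Malaria parasite (P. falciparum) lines kept in red blood cells; parasite DNA is measured by SYBR Green fluorescence after lysis, 72 h after compound addition.
Each compound was titrated across a series from about 0.000037 to 29 µM.
The number is the fitted AC50, the concentration giving a half-maximal change in signal; a lower value means higher potency, whether the curve shows a decrease or an increase.
Calls follow the curve class and fit quality: every row here is inconclusive, covering signal-raising curves and weak, poorly fitted, partial or highest-dose-only inhibition curves.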

Values are in µM.
All entries here are filed as inconclusive.
These entries are mostly ones the record files as inconclusive; other results of the assay are not listed here.
Potencies fitted to partial, single-point or poorly fitting curves are rough.

| # | structure | tested on / at | Potency (µM) | remark |
|---|---|---|---|---|
| 1 | `[Cl][In]([Cl])[Cl]` | CP335 | 19.01 | inhibitor, single point |
| 2 | `[Cl][In]([Cl])[Cl]` | CP286 | 11.22 | inhibitor, single point |
| 3 | `[Cl][In]([Cl])[Cl]` | GB4 | 19.01 | inhibitor, single point |
| 4 | `[Cl][In]([Cl])[Cl]` | PC26 | 16.94 | inhibitor, single point |
| 5 | `[Cl][In]([Cl])[Cl]` | CP217 | 17.78 | inhibitor, single point |
| 6 | `[Cl][In]([Cl])[Cl]` | DFO2036 | 17.78 | inhibitor, single point |
| 7 | `[Cl][In]([Cl])[Cl]` | ATS95 | 11.22 | inhibitor, single point |
| 8 | `[Cl][In]([Cl])[Cl]` | DIV17 | 15.1 | inhibitor, single point |
| 9 | `[Cl][In]([Cl])[Cl]` | CP265 | 14.13 | inhibitor, single point |
| 10 | `[Cl][In]([Cl])[Cl]` | CP297 | 13.46 | inhibitor, single point |
| 11 | `[Cl][In]([Cl])[Cl]` | TAB113 | 12.59 | inhibitor, single point |
| 12 | `[Cl][In]([Cl])[Cl]` | N140 | 17.78 | inhibitor, single point |
| 13 | `[Cl][In]([Cl])[Cl]` | CP215 | 13.46 | inhibitor, single point |
| 14 | `[Cl][In]([Cl])[Cl]` | PC49 | 17.78 | inhibitor, single point |
| 15 | `[Cl][In]([Cl])[Cl]` | CP266 | 13.46 | inhibitor, single point |
| 16 | `Nc1ncn(C2C[C@H](O)[C@@H](CO)O2)c(=O)n1` (stereo partly drawn) | CP215 | 19.01 | inhibitor, single point |
| 17 | `Nc1ncn(C2C[C@H](O)[C@@H](CO)O2)c(=O)n1` (stereo partly drawn) | CP297 | 0.0034 | inhibitor, full curve, poor fit |
| 18 | `Nc1ncn(C2C[C@H](O)[C@@H](CO)O2)c(=O)n1` (stereo partly drawn) | CP266 | 0.0027 | inhibitor, full curve, poor fit |
| 19 | `CC(CCc1ccccc1)NC(C)C(O)c1ccc(O)cc1` (stereo not drawn) | CP329 | 15.1 | inhibitor, partial curve, poor fit |
| 20 | `CC(CCc1ccccc1)NC(C)C(O)c1ccc(O)cc1` (stereo not drawn) | ATS189 | 10 | inhibitor, single point |
| 21 | `CC(CCc1ccccc1)NC(C)C(O)c1ccc(O)cc1` (stereo not drawn) | CP265 | 11.22 | inhibitor, single point |
| 22 | `CC(CCc1ccccc1)NC(C)C(O)c1ccc(O)cc1` (stereo not drawn) | AS120 | 10 | inhibitor, single point |
| 23 | `CC(CCc1ccccc1)NC(C)C(O)c1ccc(O)cc1` (stereo not drawn) | CP325 | 15.1 | inhibitor, partial curve, poor fit |
| 24 | `CC(CCc1ccccc1)NC(C)C(O)c1ccc(O)cc1` (stereo not drawn) | CP297 | 16.94 | inhibitor, single point |
| 25 | `CC(CCc1ccccc1)NC(C)C(O)c1ccc(O)cc1` (stereo not drawn) | CP268 | 19.01 | inhibitor, partial curve, poor fit |
| 26 | `CC(CCc1ccccc1)NC(C)C(O)c1ccc(O)cc1` (stereo not drawn) | ATS95 | 10 | inhibitor, single point |
| 27 | `CC(CCc1ccccc1)NC(C)C(O)c1ccc(O)cc1` (stereo not drawn) | CP247 | 17.78 | inhibitor, single point |
| 28 | `CC(CCc1ccccc1)NC(C)C(O)c1ccc(O)cc1` (stereo not drawn) | CP286 | 12.59 | inhibitor, single point |
| 29 | `CC(CCc1ccccc1)NC(C)C(O)c1ccc(O)cc1` (stereo not drawn) | CP211 | 10.69 | inhibitor, partial curve, poor fit |
| 30 | `CC(CCc1ccccc1)NC(C)C(O)c1ccc(O)cc1` (stereo not drawn) | PC26 | 8.492 | inhibitor, partial curve |
| 31 | `CC(CCc1ccccc1)NC(C)C(O)c1ccc(O)cc1` (stereo not drawn) | DIV17 | 13.46 | inhibitor, partial curve |

For reference, 2 entries once more:

| structure | tested on / at | Potency (µM) | remark |
|---|---|---|---|
| `Nc1ncn(C2C[C@H](O)[C@@H](CO)O2)c(=O)n1` (stereo partly drawn) | CP297 | 0.0034 | inhibitor, full curve, poor fit |
| `[Cl][In]([Cl])[Cl]` | CP265 | 14.13 | inhibitor, single point |